# In PubChem BioAssay AID1439 (NMMLSC, 2008):
# The chains behind the UniProt entries cited, without tags or fusion partners.
# UniProt P09471, whole entry, looked up: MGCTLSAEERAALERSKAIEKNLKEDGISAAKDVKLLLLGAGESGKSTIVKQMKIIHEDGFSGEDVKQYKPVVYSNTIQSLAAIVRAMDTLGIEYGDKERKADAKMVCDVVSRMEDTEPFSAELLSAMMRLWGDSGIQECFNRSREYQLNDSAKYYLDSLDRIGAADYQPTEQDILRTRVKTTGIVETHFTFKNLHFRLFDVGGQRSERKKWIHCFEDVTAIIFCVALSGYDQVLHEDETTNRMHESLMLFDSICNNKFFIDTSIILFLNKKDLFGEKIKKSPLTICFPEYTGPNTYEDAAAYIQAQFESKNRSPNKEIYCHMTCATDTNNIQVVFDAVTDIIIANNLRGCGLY
# “And” between values parts separate entries of the source, which are not always exact repeats. Equal values may be shown once. The campaign covered roughly 220,000 compounds. About 770 (0.35%) were called active. The shares of active, inactive and inconclusive entries below differ from those in the screen. No stated cut-off is given here; in the data, active means binding response below about 49% or above about 150%; inconclusive means no clear call, values can overlap the other calls; inactive means in between.
# Biological target: Guanine nucleotide-binding protein G(o) subunit alpha (Homo sapiens) (UniProt P09471)
# Experiment: RGS7-Galphao binding modulators, primary screen, biochemical, multiplexed bead flow cytometry (AID 1439);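 further: fluorescent Galphao held in activated GDP-AlF4 state binding bead-coupled RGS7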
# Conditions: at 10 µM, actives lie on both sides
row,Structure (SMILES),binding response (% of control)
1,CN(C)/C=N/c1cc(=O)n(C)c(=O)n1Cc1ccccc1,inactive: 105%
2,O=C(Cc1n[nH]c(=O)c2ccccc12)NCc1ccccc1,inconclusive: 89.4%
3,CC(C(=O)N(C)Cc1ccccc1)N1CCN(C/C=C/c2ccccc2)CC1 (stereo unspecified),inconclusive: 118%
4,Nc1ccnn1Cc1cccs1,inactive: 102%
5,COc1ccc(N2CCN(C(=O)c3cc4c(s3)-c3ccccc3S(=O)(=O)C4)CC2)cc1,inconclusive: 95.9%
6,COC(=O)c1cc(C)sc1NC(=S)N1CCN(CCc2ccccc2)CC1,inconclusive: 74%
7,O=C(C[n+]1cc(-c2ccc(Cl)cc2)n2c1CCCCC2)c1ccccc1,inconclusive: 90%
8,CC(C)C(=O)Nc1csc(C(F)(F)F)c1-c1ccccc1,inconclusive: 114%
9,CCOC(=O)Cn1nc(C)c(NC(=O)CCc2ccc(OC)cc2)c1C,inconclusive: 102%
10,CC(C)(C)C(=O)Nc1cccc(OC(F)(F)C(F)Cl)c1 (stereo unspecified),inconclusive: 118%
11,O=c1[nH]c(CSc2cccc[n+]2[O-])nc2ccccc12,inconclusive: 103%
12,CCN1CCN(Cc2ccc(NC(=O)c3cc(NC(=O)c4ccc5n[nH]nc5c4)cc(OC)c3)cc2C(F)(F)F)CC1,inconclusive: 104%
13,Cc1ccc(N2CC(=O)N(NC(=O)c3sc4nc(C)cc(C)c4c3N)CC2=O)cc1,inconclusive: 78.6%
14,Cc1cc(C(=O)NNC(=O)C2CCCC2)c(C)o1,inactive: 99.2%
15,Cc1c(O)ccc(/C=N/Nc2nc(-c3cccnc3)nc3ccccc23)c1O,inconclusive: 56.6%
16,CC(=O)c1ccc(NC(=S)NCC(c2ccco2)N2CCCC2)cc1 (stereo unspecified),inconclusive: 85.4%
17,O=C(N/N=C/c1cc([N+](=O)[O-])ccc1N1CCNCC1)c1ccc([N+](=O)[O-])cc1,inactive: 92.5%
18,CC(C)CNS(=O)(=O)c1ccc(CCC(=O)NC2CCCC2)cc1,inconclusive: 95.7%
19,CCC(C)(C)NC(=O)C(c1ccccn1)N(C(=O)c1csnn1)c1ccc(C)cc1 (stereo unspecified),inactive: 101%
20,O=C(NN=C1C2CC3CC(C2)CC1C3)c1ccccc1O,inconclusive: 131%
21,Cc1cccc(OCC(O)CN2CC3(C)CC2CC(C)(C)C3)c1 (stereo unspecified),inactive: 97.7%
22,Fc1ccc(SCCc2ccccn2)cc1,inconclusive: 122% and inconclusive: 87%
23,NC(=S)Nc1cccc2cn[nH]c12,inconclusive: 104%

row,Structure (SMILES),binding response (% of control)
1,O=S(=O)(Cc1noc(-c2ccc(OC(F)(F)F)cc2)n1)c1ccc(F)cc1,inconclusive: 120%
2,CSc1nc2ncnc(N)c2[nH]1,inconclusive: 99.2%
3,Cc1cccc(NC(=O)C2CCCN(S(=O)(=O)c3ccc4c(c3)oc(=O)n4C)C2)c1 (stereo unspecified),inconclusive: 73.3%
4,CN(C)S(=O)(=O)c1cccc(C(=O)Nc2ccc(N3CCOCC3)cc2)c1,inconclusive: 59.6%
5,COc1ccc(C2SCC(C(=O)O)N2C(C)=O)cc1 (stereo unspecified),inactive: 99.9%
6,CCCCC(=O)OCC(=O)Nc1cccc(S(=O)(=O)NC2=NCCCCC2)c1,inactive: 101%
7,O=C(N/N=C/c1cc(Cl)cc([N+](=O)[O-])c1O)c1ccccc1NS(=O)(=O)c1cccs1,inconclusive: 107%
8,CCn1c(SCC(=O)Nc2cc(C)nn2-c2ccccc2)nnc1-c1cccs1,inconclusive: 48.3%
9,O=C1C(=O)N(CCN2CCOCC2)C(c2cccnc2)/C1=C(/O)c1ccc(Cl)cc1 (stereo unspecified),inactive: 101%
10,C=C(C)c1cccc(C(C)(C)NC(=O)Nc2ccc(OC)cc2)c1,inconclusive: 137%
11,CCOC(=O)Nc1c(C(=O)OC)[nH]c2cccc(OC)c12,inactive: 120%
12,CC(C)CCNC(=O)COC(=O)/C=C/c1ccc2ccccc2n1,inconclusive: 94.2%
13,O=C(CSc1nc(-c2ccccc2)nc2c1Cc1ccccc1O2)Nc1ccc(C(=O)O)cc1,inconclusive: 92.3%
14,CCCNC(=O)/C(=C/c1cn(S(=O)(=O)N(C)C)c2ccccc12)NC(=O)c1ccc(OC)cc1,inactive: 99.1%
15,O=c1cc(CSc2nc3ccccc3c(=O)[nH]2)c2ccc(O)cc2o1,inconclusive: 113%
16,Cc1onc(-c2c(Cl)cccc2Cl)c1C(=O)N=C(N)N1CC(C)OC(C)C1 (stereo unspecified),inconclusive: 88.4%
17,Cc1cccc(CSc2nnc3c(n2)[nH]c2ccccc23)c1,inconclusive: 104%
18,Nc1ccc(-c2nc3nc(N)nc(N)c3nc2-c2ccc(N)cc2)cc1,inconclusive: 112%
19,N#Cc1c(NC(=O)C2CCCO2)sc2c1CCCCC2 (stereo unspecified),inconclusive: 123%
20,c1ccc(-c2nnc(CN3CCN(C(c4ccccc4)c4ccccc4)CC3)o2)cc1,inconclusive: 101%
21,CC(/C=C/c1ccc2c(c1)OCO2)=N\NC(=O)C(O)c1ccccc1 (stereo unspecified),inconclusive: 94.7%
22,O=C(N/N=C1\C/C(=N\NC(=O)c2ccncc2)c2ccccc21)c1ccncc1,inconclusive: 97.5%
23,O=c1nc(SCc2c(F)cccc2Cl)nc(-c2ccccc2)[nH]1,inconclusive: 85.8%

row,Structure (SMILES),binding response (% of control)
1,Nc1nonc1-n1nnc(C(=O)N/N=C/c2ccc(OCc3ccccc3)cc2)c1COc1ccc(F)cc1,inconclusive: 90%
2,Clc1nc2c(ccc3ccccc32)[nH]1,inconclusive: 97.2%
3,CCCCC#Cc1cncc(C(=O)N/N=C/c2cccc(OC)c2)c1,inconclusive: 58.9%
4,CN1C(=O)C(CC(=O)Nc2ccc(F)cc2)N(Cc2ccco2)C1=S (stereo unspecified),inconclusive: 100%
5,COc1ccc(OCCC(=O)OCC(=O)NCCC2=CCCCC2)cc1,inconclusive: 107%
6,CC(=O)c1ccc(OCC(=O)NCC2(N3CCCCC3)CCCCC2)cc1,inconclusive: -142%
7,O=[N+]([O-])c1ccccc1S(=O)(=O)N1CCN(CC2CC=CCC2)CC1 (stereo unspecified),inconclusive: 77.4%
8,O=Cc1ccc(Oc2cnccn2)cc1,inconclusive: 126%
9,O=c1c2ccccc2c(-c2ccccc2)nn1-c1cc(Cl)cc(Cl)c1,inconclusive: 124%
10,Cc1cn2c(N)c(/C=C3\C=Nc4ccccc43)c(=O)nc2s1,inconclusive: 380%
11,Cc1cc(Cl)nc(-c2ccccc2O)n1,inconclusive: 136%
12,COc1ccccc1NC(=O)Nc1ccc(C(=O)N2CCCCC2)cc1,inconclusive: 90%
13,Cn1cccc1/C=N/N1CCN(Cc2ccccc2Cl)CC1,inconclusive: 304%
14,COc1ccc(NS(=O)(=O)c2cccc(NC(=O)COc3ccc(OC)cc3)c2)cc1,inconclusive: 94.8%
15,COc1cccc(NC(=O)C2(S(=O)(=O)c3ccc(Cl)cc3)CC2)c1,inconclusive: -484%
16,CCOC(=O)/C(C#N)=C/N1CCOCC1,inconclusive: 90.5%
17,COC(=O)c1ccc(S(=O)(=O)N2CCC(O)CC2)n1C,inconclusive: 102%
18,CC(=O)N1CCN(C(=S)NCc2ccccc2)CC1,inactive: 106%
19,CCCCn1nnc(NC(=O)c2ccc(-c3cccc([N+](=O)[O-])c3)o2)n1,inconclusive: 119%
20,Cc1ccccc1NC(=O)CCN1CCc2ccccc2C1,inactive: 99.4%
21,Cn1ccnc1Sc1nnnn1-c1ccccc1,inactive: 97.7%
22,O=C(CSc1ccc(Cl)cc1)N1N=CCC1c1ccccc1 (stereo unspecified),inconclusive: 95.6%
23,COC(=O)N/N=C(\CCC(=O)O)c1cccs1,inconclusive: 110%

row,Structure (SMILES),binding response (% of control)
1,C=CCNC(=O)c1onc(CSc2ccc(Cl)cc2)c1C(=O)NCC=C,inconclusive: 99.3%
2,CC(C)(C)OC(=O)[C@H](Cc1ccccc1)NC(=O)c1nc[nH]c1C(=O)NCc1ccccc1,inactive: 101%
3,CC(C)CCSc1nnc(N)s1,inconclusive: 108%
4,CCc1cc2c(SCC(=O)N(C)C3CCS(=O)(=O)C3)ncnc2s1 (stereo unspecified),inconclusive: 116%
5,COc1cccc(-c2noc(CCCC(=O)N3CCOCC3)n2)c1,inactive: 102%
6,CCn1c(O)c(N=Nc2ccc3ccccc3n2)c2ccccc21,inconclusive: 110%
7,Cc1ccc(-n2cnc3ncnc(-c4ccccc4)c32)cc1,inconclusive: 112%
8,Cc1ccc(C)c(OCc2nnc(NC(=O)c3ccc4c(c3)OCO4)s2)c1,inconclusive: 94.2%
9,O=C(Nc1ccccc1)Nc1nc(-c2ccccc2)cs1,inconclusive: 105%
10,O=c1cc(CN2CCN(S(=O)(=O)c3ccccc3[N+](=O)[O-])CC2)nc2sccn12,inconclusive: 82.8%
11,N#CC(C#N)=C1c2cc(S(=O)(=O)NCCO)ccc2-c2ccc(S(=O)(=O)NCCO)cc21,inconclusive: 75.2%
12,CC(C(=O)Nc1ccc(C#N)cc1)N(C)CC(=O)Nc1cccc(F)c1 (stereo unspecified),inconclusive: 108%
13,O=C(c1ccc2c(=O)n3c(nc2c1)CCCCC3)N1CCc2ccccc21,inconclusive: 132%
14,CCCCC1=CC2=CC(=O)C(C)(OC(=O)CC)C(=O)C2=CN1CCOC (stereo unspecified),inconclusive: 117%
15,O=C(Cc1ccc(F)cc1)OCn1nnc2ccccc2c1=O,inconclusive: 103%
16,CC(C)(C)c1ccc(SCCc2ccccn2)cc1,inconclusive: 631%
17,COc1ccc(-n2c(=O)c3c4c(sc3n(CC(=O)NC3CCCC3)c2=O)CCCC4)c(OC)c1,inconclusive: 106%
18,CCOc1cccc2cc(C(C)=O)oc12,active: 10.3%
19,COc1ccc(C(C)=O)cc1COc1nc(C)nc2ccccc12,inconclusive: 88.8%
20,CCCc1cc(N2CCC(C(N)=O)CC2)nc(-c2ccccc2)n1,inconclusive: 58.1%
21,C/C(=N\Nc1ccc2nncn2n1)c1ccc(Cl)s1,inconclusive: -76.2%
22,COC(=O)c1ccccc1NC(=S)N1CCC(N2CCCCC2)CC1,inconclusive: 66.3%

# Individual results from above:
# CCC(C)(C)NC(=O)C(c1ccccn1)N(C(=O)c1csnn1)c1ccc(C)cc1 (stereo unspecified) – binding response (% of control): inactive: 101%
# Cc1ccc(C)c(OCc2nnc(NC(=O)c3ccc4c(c3)OCO4)s2)c1 – binding response (% of control): inconclusive: 94.2%
# Cc1c(O)ccc(/C=N/Nc2nc(-c3cccnc3)nc3ccccc23)c1O – binding response (% of control): inconclusive: 56.6%
# COc1ccc(C2SCC(C(=O)O)N2C(C)=O)cc1 (stereo unspecified) – binding response (% of control): inactive: 99.9%
# CC(C)(C)OC(=O)[C@H](Cc1ccccc1)NC(=O)c1nc[nH]c1C(=O)NCc1ccccc1 – binding response (% of control): inactive: 101%
# O=C(C[n+]1cc(-c2ccc(Cl)cc2)n2c1CCCCC2)c1ccccc1 – binding response (% of control): inconclusive: 90%
# CCCCn1nnc(NC(=O)c2ccc(-c3cccc([N+](=O)[O-])c3)o2)n1 – binding response (% of control): inconclusive: 119%
